pIC50: −log10 of the molar value. Some entries share one result that the patent states for a list of compounds.
Columns and labels:
B. canis = experiment: Antibabesiasis activity in vitro against B. canis; format: cell-based
Description: (§1) The products TE4c, TS3b and P1 were also evaluated in vitro for their activities against Babesia divergens and B. canis.

Babesia divergens = experiment: Antibabesiasis activity in vitro against Babesia divergens; format: cell-based
Description: as §1

Compound	pIC50 (B. canis)	pIC50 (Babesia divergens)
N,N′-dimethyl-N,N′-(5-chloropentyl)-1,16-hexadecane diamine hydrochloride [P1]	> 7.70	
COCCC(SC(=O)c1ccccc1)=C(C)N(C=O)CCCCCCCCCCCCN(C=O)C(C)=C(CCOC)SC(=O)c1ccccc1 [TE4c, N,N′-diformyl-N,N′-di[1-methyl-2-S-thiobenzoyl-4-methoxybut-1-enyl]-1,12-diaminododecane]	> 7.70	> 7.70
